PubChem BioAssay AID256 (DTP/NCI, 2004)
The list is a part of this screen's results and no random one: it gathers tests that were run many times, whatever their T/C, doses with no T/C, and many T/C values between a quarter and a half above the control. Further doses and runs are listed elsewhere. T/C is the treated group as % of the vehicle group. Some entries give survivors of the animals treated and no T/C: the source files T/C as zero there, which appears to mark a toxic dose or a test without result, not a measured value. Some doses without a T/C left all or most animals alive at the check, yet need not have been tolerated: survival well below the control is almost never listed, so the zero probably covers shortened survival too. Counts of survivors are from the toxicity check (mostly the fifth day) where no day follows; animals may have died later. Schedules are NCI's codes, taken here to give the interval after Q, in days (D) or hours (H), and the number of doses after X. Some entries hold several experiments; the values are given in rising order. Where survival is the endpoint, the PubChem record calls one and a half times the control and up active, and a quarter to a half above the control has no call in these data; cut-offs in other NCI protocols can differ.

System: CD2F1 mice, L1210 leukemia ip, survival T/C
Test: NCI In Vivo Anticancer Drug Screen. Data for tumor model L1210 Leukemia (intraperitoneal) in CD2F1 (CDF1) mice
Details: higher T/C = longer survival
Protocol: The antitumor activity of compounds was measured in mice bearing transplantable tumors. Survival or tumor size were measured and the results are expressed as the measurement made in the treated group (T) divided by the measurement made in the vehicle treated control group (C). The tumor model used in this assay is L1210 Leukemia (intraperitoneal) in CD2F1 (CDF1) mice

[1] = T/C endpoint: mean survival time, dose: 200.0 mg/kg/injection, schedule: Q01DX009 (ip), vehicle: saline with Tween-80
[2] = T/C endpoint: median survival time, dose: 12.5 mg/kg/injection, schedule: Q04DX003 (ip), vehicle: saline
[3] = T/C endpoint: mean survival time, dose: 50.0 mg/kg/injection, schedule: Q01DX009 (ip), vehicle: saline with Tween-80
[4] = T/C endpoint: mean survival time, dose: 400.0 mg/kg/injection, schedule: Q01DX001 (ip), vehicle: saline
[5] = T/C endpoint: mean survival time, dose: 100.0 mg/kg/injection, schedule: Q01DX009 (ip), vehicle: saline with Tween-80
[6] = T/C endpoint: mean survival time, dose: 150.0 mg/kg/injection, schedule: Q04DX003 (ip), vehicle: saline
[7] = T/C endpoint: mean survival time, dose: 200.0 mg/kg/injection, schedule: Q04DX002 (ip), vehicle: saline with Tween-80
[8] = T/C endpoint: mean survival time, dose: 400.0 mg/kg/injection, schedule: Q04DX002 (ip), vehicle: saline with Tween-80
[9] = T/C endpoint: mean survival time, dose: 400.0 mg/kg/injection, schedule: Q01DX009 (ip), vehicle: saline with Tween-80
[10] = T/C endpoint: mean survival time, dose: 400.0 mg/kg/injection, schedule: Q04DX003 (ip), vehicle: saline with Tween-80
[11] = T/C endpoint: mean survival time, dose: 100.0 mg/kg/injection, schedule: Q04DX003 (ip), vehicle: saline with Tween-80
[12] = T/C endpoint: mean survival time, dose: 200.0 mg/kg/injection, schedule: Q04DX003 (ip), vehicle: saline with Tween-80

Compound: COC(=O)Nc1ccc(Cc2ccc(NC(=O)OC)cc2)cc1
- T/C [1]: 143 and 146 % of control

Compound: NC(=O)c1ncn(C2CC3[O][Sn]([c]4ccccc4)([c]4ccccc4)[O]CC3O2)n1 (stereo unspecified)
- survivor count (T/C endpoint: mean survival time, dose: 50.0 mg/kg/injection, schedule: Q01DX005 (ip), vehicle: distilled water + Tween-80): 6 of 6

Compound: CCCN(CCC)CCCC#N
- survivor count [1]: 1 of 6

Compound: Cc1ccc2nc(-c3ccc(NC(=O)Nc4cccc(F)c4)cc3)sc2c1
- survivor count [1]: 2 of 3

Compound: NC1CCCCC1N.O=S(=O)([O-])CCCNC1CCCCC1.O=S(=O)([O-])CCCNC1CCCCC1.[Pt+4]
- T/C [2]: 144 % of control
- survivor count [2]: 6 of 6
- survivor count (T/C endpoint: median survival time, dose: 25.0 mg/kg/injection, schedule: Q04DX003 (ip), vehicle: saline): 5 of 6 and 6 of 6
- survivor count (T/C endpoint: median survival time, dose: 50.0 mg/kg/injection, schedule: Q04DX003 (ip), vehicle: saline): 1 of 6
- survivor count (T/C endpoint: median survival time, dose: 100.0 mg/kg/injection, schedule: Q04DX003 (ip), vehicle: saline): 0 of 6
- survivor count (T/C endpoint: median survival time, dose: 200.0 mg/kg/injection, schedule: Q04DX003 (ip), vehicle: saline): 0 of 6

Compound: Cc1cc(Cl)ccc1NC(=O)Nc1nccs1
- survivor count [3]: 3 of 3

Compound: Oc1cccc2cc3cccc(O)c3c(O)c12
- survivor count (T/C endpoint: mean survival time, dose: 100.0 mg/kg/injection, schedule: Q01DX001 (ip), vehicle: saline): 0 of 6
- survivor count (T/C endpoint: mean survival time, dose: 200.0 mg/kg/injection, schedule: Q01DX001 (ip), vehicle: saline): 0 of 6
- survivor count [4]: 0 of 6

Compound: S=c1cc[nH]c2ccccc12
- survivor count (T/C endpoint: mean survival time, dose: 100.0 mg/kg/injection, schedule: Q01DX009 (ip), vehicle: other): 1 of 6
- survivor count (T/C endpoint: mean survival time, dose: 200.0 mg/kg/injection, schedule: Q01DX009 (ip), vehicle: other): 0 of 6

Compound: Nc1nc2ncn(O)c2c(=O)[nH]1
- T/C (T/C endpoint: median survival time, dose: 3.12 mg/kg/injection, schedule: Q01DX009 (ip), vehicle: water): 138 and 144 % of control
- T/C (T/C endpoint: median survival time, dose: 25.0 mg/kg/injection, schedule: Q01DX009 (ip), vehicle: water): 134 % of control
- survivor count (T/C endpoint: median survival time, dose: 50.0 mg/kg/injection, schedule: Q01DX009 (ip), vehicle: other): 1 of 6
- survivor count (T/C endpoint: median survival time, dose: 50.0 mg/kg/injection, schedule: Q01DX009 (ip), vehicle: water): 5 of 6 and 6 of 6

Compound: O=C(CNC(=O)NCc1ccco1)N/N=C/c1cc(Br)ccc1O
- survivor count [3]: 3 of 3
- survivor count [5]: 3 of 3

Compound: CCCCCCCCCCCCCCCCOc1ccc(C(C)=O)cc1
- survivor count [5]: 6 of 6

Compound: N#CC1(C#N)OC1(C#N)c1ccccc1 (stereo unspecified)
- survivor count (T/C endpoint: mean survival time, dose: 6.0 mg/kg/injection, schedule: Q01DX009 (ip), vehicle: saline with Tween-80): 6 of 6
- survivor count (T/C endpoint: mean survival time, dose: 12.5 mg/kg/injection, schedule: Q01DX001 (ip), vehicle: saline with Tween-80): 6 of 6
- survivor count (T/C endpoint: mean survival time, dose: 25.0 mg/kg/injection, schedule: Q01DX001 (ip), vehicle: saline with Tween-80): 0 of 6
- survivor count (T/C endpoint: mean survival time, dose: 50.0 mg/kg/injection, schedule: Q01DX001 (ip), vehicle: saline with Tween-80): 0 of 6
- survivor count (T/C endpoint: mean survival time, dose: 100.0 mg/kg/injection, schedule: Q01DX001 (ip), vehicle: saline with Tween-80): 0 of 6
- survivor count (T/C endpoint: mean survival time, dose: 200.0 mg/kg/injection, schedule: Q01DX001 (ip), vehicle: saline with Tween-80): 0 of 6

Compound: NNc1ccccc1F
- survivor count (T/C endpoint: mean survival time, dose: 200.0 mg/kg/injection, schedule: Q04DX003 (ip), vehicle: saline sonified): 0 of 6
- survivor count (T/C endpoint: mean survival time, dose: 400.0 mg/kg/injection, schedule: Q04DX003 (ip), vehicle: saline sonified): 0 of 6

Compound: O=C(C[n+]1cccc(C(=O)c2ccccc2)c1)c1ccccc1
- survivor count [6]: 2 of 6
- survivor count (T/C endpoint: mean survival time, dose: 300.0 mg/kg/injection, schedule: Q01DX001 (ip), vehicle: saline): 0 of 6

Compound: CCOC(=O)CC/C=C\Cc1c(OC)c(C)c2c(c1OC(=O)Nc1ccc(C(C)=O)cc1)C(=O)OC2
- T/C [7]: 137 % of control
- T/C [8]: 133 % of control
- T/C (T/C endpoint: median survival time, dose: 100.0 mg/kg/injection, schedule: Q04DX002 (ip), vehicle: saline with Tween-80): 125 % of control
- T/C (T/C endpoint: median survival time, dose: 200.0 mg/kg/injection, schedule: Q04DX002 (ip), vehicle: saline with Tween-80): 140 % of control
- T/C (T/C endpoint: median survival time, dose: 400.0 mg/kg/injection, schedule: Q04DX002 (ip), vehicle: saline with Tween-80): 143 % of control

Compound: COc1cc(NS(C)(=O)=O)ccc1Nc1c2ccc([N+](=O)[O-])cc2nc2c(C)cccc12
- T/C (T/C endpoint: mean survival time, dose: 3.75 mg/kg/injection, schedule: Q01DX009 (ip), vehicle: saline with Tween-80): 147 % of control
- survivor count (T/C endpoint: mean survival time, dose: 15.0 mg/kg/injection, schedule: Q01DX009 (ip), vehicle: saline with Tween-80): 6 of 6
- survivor count [6]: 0 of 6

Compound: C=C(NC(C)=O)C(=O)CCC(N)=O
- survivor count (T/C endpoint: mean survival time, dose: 40.0 mg/kg/injection, schedule: Q04DX003 (ip), vehicle: saline): 1 of 6

Compound: CCC(c1ccc(OC)cc1)C(CC)c1ccc(O)c(CN2CCN(C)CC2)c1 (stereo unspecified)
- survivor count [1]: 4 of 6
- survivor count [9]: 1 of 6

Compound: CC(C)(C)C(NO)C(O)N1CCCCC1 (stereo unspecified)
- survivor count [4]: 1 of 6

Compound: C#CCOCCC(C(C)=O)C(=O)OCC (stereo unspecified)
- survivor count [4]: 1 of 6

Compound: CC(C)NCC1CC2c3cccc4[nH]cc(c34)CC2N(C)C1 (stereo unspecified)
- survivor count (T/C endpoint: median survival time, dose: 100.0 mg/kg/injection, schedule: Q04DX003 (ip), vehicle: saline with Tween-80): 1 of 3
- survivor count (T/C endpoint: median survival time, dose: 200.0 mg/kg/injection, schedule: Q04DX003 (ip), vehicle: saline with Tween-80): 0 of 3

Compound: O=c1[nH]ccc2occc12
- survivor count [1]: 2 of 6
- survivor count [10]: 2 of 6

Compound: COC(=O)C(Br)CCC(Br)C(=O)OC (stereo unspecified)
- survivor count [9]: 3 of 6

Compound: C[n+]1ccc(/C=C/c2c[nH]c3ccccc23)cc1
- survivor count [11]: 2 of 6
- survivor count [12]: 4 of 6
- survivor count [10]: 0 of 6

Compound: CC(C)(C)N[P+](Cc1ccc(C[P+](NC(C)(C)C)(NC(C)(C)C)c2ccccc2)cc1)(NC(C)(C)C)c1ccccc1
- survivor count (T/C endpoint: mean survival time, dose: 6.25 mg/kg/injection, schedule: Q04DX003 (ip), vehicle: saline): 3 of 6
- survivor count (T/C endpoint: mean survival time, dose: 12.5 mg/kg/injection, schedule: Q04DX003 (ip), vehicle: saline with Tween-80): 1 of 6
- survivor count (T/C endpoint: mean survival time, dose: 25.0 mg/kg/injection, schedule: Q04DX003 (ip), vehicle: saline with Tween-80): 1 of 6
- survivor count (T/C endpoint: mean survival time, dose: 50.0 mg/kg/injection, schedule: Q04DX003 (ip), vehicle: saline with Tween-80): 0 of 6
- survivor count [11]: 0 of 6
- survivor count [12]: 0 of 6
- survivor count [10]: 0 of 6

Compound: CCN(Cc1ccc(Cl)c(Cl)c1)c1ccc2nc(N)nc(N)c2c1C
- T/C (T/C endpoint: mean survival time, dose: 6.0 mg/kg/injection, schedule: Q01DX009 (ip), vehicle: water): 137 % of control
- T/C (T/C endpoint: mean survival time, dose: 12.0 mg/kg/injection, schedule: Q01DX009 (ip), vehicle: water): 137 % of control
- T/C (T/C endpoint: median survival time, dose: 12.0 mg/kg/injection, schedule: Q01DX009 (ip), vehicle: water): 145 % of control
- T/C (T/C endpoint: median survival time, dose: 24.0 mg/kg/injection, schedule: Q01DX009 (ip), vehicle: water): 142 % of control

Compound: N=C(N)SSCc1ccco1
- survivor count (T/C endpoint: mean survival time, dose: 100.0 mg/kg/injection, schedule: Q04DX002 (ip), vehicle: saline with Tween-80): 0 of 3
- survivor count [7]: 0 of 3
- survivor count [8]: 0 of 3

Compound: CCCCN1C(=O)C=CC1=O
- survivor count (T/C endpoint: mean survival time, dose: 6.25 mg/kg/injection, schedule: Q01DX009 (ip), vehicle: saline with Tween-80): 0 of 3
- survivor count (T/C endpoint: mean survival time, dose: 12.5 mg/kg/injection, schedule: Q01DX009 (ip), vehicle: saline with Tween-80): 0 of 3
- survivor count (T/C endpoint: mean survival time, dose: 25.0 mg/kg/injection, schedule: Q01DX009 (ip), vehicle: saline with Tween-80): 0 of 3
